According to the supplement of paper PMC11060735:
Values joined by “and” are separate entries in the source; they are usually repeats but may differ in a detail not shown here. Equal entries are not always repeated. Structures can show the parent of a compound that is named as a salt. ± gives the standard deviation of the averaged measurements. Whole data set: some 1,800 compounds, median “GFP- (p16Ink4a-) cell count relative to negative-control wells” near 0.99, cut for the lowest 2% near 0.5. The list shows a part of the results.

The molecules below were run on mouse p16Ink4a+/- lung fibroblasts (INKBRITE, bleomycin-injured) (assay: GFP- (p16Ink4a-) cell count relative to negative-control wells (fold of vehicle); higher = more p16Ink4a- cells surviving). Details: 1 µM; 3 days.

SMILES | GFP-
Cc1ccc(C(=O)C(C)CN2CCCCC2)cc1 (centres undefined) [Tolperisone] | 1.01
Cn1c(=O)n(-c2ccc(C(C)(C)C#N)cc2)c2c3cc(-c4cnc5ccccc5c4)ccc3ncc21 [Dactolisib] | 0.74
NC(=O)c1ncn([C@@H]2O[C@H](CO)[C@@H](O)[C@H]2O)n1 [Ribavirin] | 1.01
Cc1ccnc(NS(=O)(=O)c2ccc(N)cc2)n1 [Sulfamerazine] | 1.1
Cc1cc(-n2c(=O)[nH]c(=O)n(C)c2=O)ccc1Oc1ccc(SC(F)(F)F)cc1 [Toltrazuril] | 0.887
Nc1cc(C(F)(F)F)c(-c2cc(N3CCOCC3)nc(N3CCOCC3)n2)cn1 [Buparlisib] | 0.719
CNCCC(Oc1ccc(C(F)(F)F)cc1)c1ccccc1 (centres undefined) [Fluoxetine Hydrochloride, Fluoxetine] | 1.26
O=C(CCCCCCC(=O)Nc1ccccc1)NO [Vorinostat] | 0.555 ± 0.046
CNC[C@H](O)[C@@H](O)[C@H](O)[C@H](O)CO [Meglumine] | 1.16
COc1ccc(-c2ccc3c(N4CCOCC4)nc(N4C[C@@H](C)O[C@@H](C)C4)nc3n2)cc1CO | 1.01
CC(=O)N[C@@H](CS)C(=O)O [Acetylcysteine] | 1.05
Nc1c(Br)cc(Br)cc1CN[C@H]1CC[C@H](O)CC1 [Ambroxol] | 0.981
CCCCCCCCCCCCCCCC(=O)OC1C(SC)OC(C(NC(=O)C2CC(CCC)CN2C)C(C)Cl)C(O)C1O (centres undefined) [Clindamycin palmitate HCl] | 1.05
Cc1c(Cn2c(C)nc3c(C(=O)O)cc(N4CCOCC4)cc32)cccc1C(F)(F)F | 0.878
c1cc(-c2cnn3cc(-c4ccc(N5CCNCC5)cc4)cnc23)c2cccnc2c1 | 1.08
CCN(CC)CCOC(=O)c1ccc(N)cc1 [Procaine, Novocain] | 1.1
CN1C(C(=O)Nc2ccccn2)=C(O)c2ccccc2S1(=O)=O [Piroxicam] | 0.954
CO[C@H]1O[C@@H]2O[C@]3(C)CC[C@H]4[C@H](C)CC[C@@H]([C@H]1C)[C@@]24OO3 [Artemether] | 0.98
CCCCc1nc(Cl)c(CO)n1Cc1ccc(-c2ccccc2-c2nn[nH]n2)cc1 [Losartan, Losartan Potassium] | 1.06
O=C(/C=C/c1ccc(CN(CCO)CCc2c[nH]c3ccccc23)cc1)NO [Dacinostat] | 0.556 ± 0.066
CN(C)CCOC(c1ccccc1)c1ccccc1 [Diphenhydramine] | 0.916
N=c1ccn2c(n1)O[C@H]1[C@H](O)[C@@H](CO)O[C@H]12 [Cyclocytidine HCl] | 0.619
Cn1c(=O)c2c(ncn2CC(O)CO)n(C)c1=O (centres undefined) [Dyphylline] | 1.22
C[C@]12C=CC(=O)C=C1CC[C@@H]1[C@@H]2C(=O)C[C@@]2(C)[C@H]1CC[C@]2(O)C(=O)CO [Prednisone] | 1.08
CCc1c(O)cc(O)c(C(=O)c2ccc(OCCN3CCOCC3)c(OC)c2)c1CC(=O)N(CCOC)CCOC | 0.894

Four of these compounds, set out differently.
SMILES	GFP-
Cc1ccnc(NS(=O)(=O)c2ccc(N)cc2)n1 [Sulfamerazine]	1.1
Nc1c(Br)cc(Br)cc1CN[C@H]1CC[C@H](O)CC1 [Ambroxol]	0.981
Cc1c(Cn2c(C)nc3c(C(=O)O)cc(N4CCOCC4)cc32)cccc1C(F)(F)F	0.878
CN1C(C(=O)Nc2ccccn2)=C(O)c2ccccc2S1(=O)=O [Piroxicam]	0.954

(cont.)

SMILES | GFP-
COc1cc2c(cc1OC)CN(CCc1ccc(NC(=O)c3cc(OC)c(OC)cc3NC(=O)c3cnc4ccccc4c3)cc1)CC2 [Tariquidar] | 0.938
CCCCCCCCCCCCCCCC(=O)OC[C@H](O)[C@H]1OC(O)=C(O)C1=O [L-Ascorbyl 6-palmitate] | 1.1
COc1ccc(C(=O)CC(=O)c2ccc(C(C)(C)C)cc2)cc1 [Avobenzone] | 1.09
CS(=O)(=O)c1ccc(-c2cnc(N)c(C(=O)Nc3ccccc3)n2)cc1 | 0.863
C=CC(=O)Nc1cc2c(Nc3ccc(F)c(Cl)c3)ncnc2cc1OCCCN1CCOCC1 | 0.571
COc1cc(C(=O)NC2CCCNC2)cc(OC)c1OC (centres undefined) [Troxipide] | 1.03
CCO/C(O)=C1\C(COCCN)=NC(C)=C(C(=O)OC)C1c1ccccc1Cl (centres undefined) [Amlodipine] | 0.841
Cc1c(OCC(F)(F)F)ccnc1CS(=O)c1nc2ccccc2[nH]1 (centres undefined) [Lansoprazole] | 1.06
CO[C@@H](C(=O)N1Cc2[nH]nc(NC(=O)c3ccc(N4CCN(C)CC4)cc3)c2C1)c1ccccc1 [Danusertib] | 0.733 ± 0.17
OC(CC1c2ccccc2-c2cncn21)C1CCCCC1 (centres undefined) | 1.17
CCC[C@@H]1C[C@@H](C(=O)N[C@H](C(C)Cl)[C@H]2O[C@H](SC)[C@H](O)[C@@H](O)[C@H]2O)N(C)C1 (some centres undefined) [Clindamycin HCl] | 0.865 and 1.15
Cc1cc(Cl)ccc1OCCCC(=O)NO [Droxinostat] | 0.915 ± 0.22
CC[C@H]1OC(=O)[C@H](C)[C@@H](O[C@H]2C[C@@](C)(OC)[C@@H](O)[C@H](C)O2)[C@H](C)[C@@H](O[C@H]2O[C@H](C)C[C@H](N(C)C)[C@H]2O)[C@](C)(O)C[C@@H](C)C(=O)[C@H](C)[C@@H](O)[C@]1(C)O [Erythromycin] | 1.07
O=C(Nc1cccnc1)N1CCC(Cc2cccc(Oc3ccc(C(F)(F)F)cn3)c2)CC1 | 0.927
Oc1ccnc(S)n1 [2-thiouracil] | 0.987
c1cncc(CN2CCC(n3ncc4c(N5CCOCC5)nc(-c5ccc6[nH]ccc6c5)nc43)CC2)c1 | 0.82
CCOC(=O)N1c2ccc(C(F)(F)F)cc2[C@@H](N(Cc2cc(C(F)(F)F)cc(C(F)(F)F)c2)C(=O)OC)C[C@H]1CC [Torcetrapib] | 1.04
C=C1/C(=C\C=C2/CCC[C@]3(C)[C@@H]([C@H](C)CCCC(C)(C)O)CC[C@@H]23)C[C@@H](O)C[C@@H]1O [Calcitriol, DN-101] | 1.39
OCc1ccc(O[C@@H]2O[C@H](CO)[C@@H](O)[C@H](O)[C@H]2O)cc1 [Gastrodin] | 0.979
COc1cc2ncnc(Nc3ccc(F)c(Cl)c3)c2cc1OCCCN1CCOCC1 [Gefitinib] | 0.923
CC(COc1ccccc1)N(CCCl)Cc1ccccc1 (centres undefined) [Phenoxybenzamine] | 1.17
O=C(Nc1c(Cl)cncc1Cl)c1ccc(OC(F)F)c(OCC2CC2)c1 [Roflumilast] | 0.982
CC(=O)OCC(=O)[C@@]12N=C(C)O[C@@H]1C[C@H]1[C@@H]3CCC4=CC(=O)C=C[C@]4(C)[C@H]3[C@@H](O)C[C@@]12C [Deflazacort] | 1.08
CCCS(=O)(=O)Nc1ccc(F)c(C(=O)c2c[nH]c3ncc(-c4ccc(Cl)cc4)cc23)c1F [Vemurafenib] | 1.11
